Consider two molecules from publication PMC11977240.

By UniProt entry, the sequences of proteins in these tests, tags left out.
UniProt Q00839: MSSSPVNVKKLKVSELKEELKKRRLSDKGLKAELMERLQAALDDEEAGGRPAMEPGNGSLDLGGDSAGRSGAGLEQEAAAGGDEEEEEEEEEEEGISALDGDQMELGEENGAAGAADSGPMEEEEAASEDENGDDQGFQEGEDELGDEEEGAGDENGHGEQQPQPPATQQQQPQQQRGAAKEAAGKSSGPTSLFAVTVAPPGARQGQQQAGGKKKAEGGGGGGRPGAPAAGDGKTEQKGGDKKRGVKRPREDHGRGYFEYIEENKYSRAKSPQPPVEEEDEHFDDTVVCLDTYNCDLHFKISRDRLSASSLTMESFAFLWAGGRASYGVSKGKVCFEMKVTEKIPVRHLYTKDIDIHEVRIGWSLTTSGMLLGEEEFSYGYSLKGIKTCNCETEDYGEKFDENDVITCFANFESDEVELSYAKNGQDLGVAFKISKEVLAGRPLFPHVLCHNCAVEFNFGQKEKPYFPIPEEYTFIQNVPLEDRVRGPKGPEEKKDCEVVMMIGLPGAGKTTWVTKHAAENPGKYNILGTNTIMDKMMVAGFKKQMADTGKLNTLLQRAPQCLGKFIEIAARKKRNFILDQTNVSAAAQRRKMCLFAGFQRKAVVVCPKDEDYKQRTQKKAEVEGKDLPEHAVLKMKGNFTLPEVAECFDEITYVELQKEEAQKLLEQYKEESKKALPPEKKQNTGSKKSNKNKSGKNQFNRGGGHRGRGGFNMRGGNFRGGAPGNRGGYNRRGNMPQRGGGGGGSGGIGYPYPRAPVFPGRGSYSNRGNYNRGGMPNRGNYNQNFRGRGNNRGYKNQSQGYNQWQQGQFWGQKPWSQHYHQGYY
UniProt O00571: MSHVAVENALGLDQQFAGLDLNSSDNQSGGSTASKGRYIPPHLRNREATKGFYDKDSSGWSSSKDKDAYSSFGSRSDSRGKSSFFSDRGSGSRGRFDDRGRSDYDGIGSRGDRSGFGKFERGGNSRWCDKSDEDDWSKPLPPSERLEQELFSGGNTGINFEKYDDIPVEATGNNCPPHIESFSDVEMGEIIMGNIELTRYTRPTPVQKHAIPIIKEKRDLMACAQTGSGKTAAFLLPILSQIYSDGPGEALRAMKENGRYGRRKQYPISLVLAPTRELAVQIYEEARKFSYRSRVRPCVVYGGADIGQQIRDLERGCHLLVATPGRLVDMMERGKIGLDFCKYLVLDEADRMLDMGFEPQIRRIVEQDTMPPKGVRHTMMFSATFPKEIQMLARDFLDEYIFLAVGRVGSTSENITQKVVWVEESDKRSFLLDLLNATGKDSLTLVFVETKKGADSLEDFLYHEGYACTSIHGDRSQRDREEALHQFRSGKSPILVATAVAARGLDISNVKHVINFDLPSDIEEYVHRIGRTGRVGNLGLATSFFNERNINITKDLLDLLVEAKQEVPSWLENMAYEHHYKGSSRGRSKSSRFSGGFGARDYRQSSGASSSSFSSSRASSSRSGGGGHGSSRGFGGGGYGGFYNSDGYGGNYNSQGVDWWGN

Where two headings read alike, the source gives them in different places. These are yes or no findings as the source states them, for the method shown. Binding seen in cells or lysates may run through a third protein. A yes stands for co-enrichment or nearness to the bait. Other partners may have been found. For some assays here: No binding means not detected with the bait.

The target of experiment [1] is hnRNP U (human (endogenous in HCT116)) (UniProt Q00839). The experiment is described as follows: affinity purification with mass spectrometry; IP with hnRNP U antibody (Santa Cruz sc-32315) on protein-sepharose beads from 600 µg HCT116 cytoplasmic extract digested with benzonase, overnight at 4 °C; IgG control; label-free HCD-MS/MS, SAINT score SP ≥ 0.8, four replicates.

For experiment [2] the target is unchanged. The experiment is described as above. This is another data set of the same source.

In the case of DDX3X (from UniProt O00571 1-662), in experiment [1], the binding entry is “binds”.

B1: GRSF1 (protein, UniProt Q12849 118-480)
chain: SQESKTTYLEDLPPPPEYELAPSKLEEEVDDVFLIRAQGLPWSCTMEDVLNFFSDCRIRNGENGIHFLLNRDGKRRGDALIEMESEQDVQKALEKHRMYMGQRYVEVYEINNEDVDALMKSLQVKSSPVVNDGVVRLRGLPYSCNEKDIVDFFAGLNIVDITFVMDYRGRRKTGEAYVQFEEPEMANQALLKHREEIGNRYIEIFPSRRNEVRTHVGSYKGKKIASFPTAKYITEPEMVFEEHEVNEDIQPMTAFESEKEIELPKEVPEKLPEAADFGTTSSLHFVHMRGLPFQANAQDIINFFAPLKPVRITMEYSSSGKATGEADVHFETHEDAVAAMLKDRSHVHHRYIELFLNSCPKGK
Take B1: the binding entry in experiment [2] is “no binding”.
